PMC7297531
These are yes or no findings as the source states them, for the method shown. In cells and extracts the contact can be indirect. Some results given as binding are weak or reduced against the parent protein; the word gives no strength.

By UniProt entry, the sequences of proteins in these tests, tags left out.
UniProt Q07820: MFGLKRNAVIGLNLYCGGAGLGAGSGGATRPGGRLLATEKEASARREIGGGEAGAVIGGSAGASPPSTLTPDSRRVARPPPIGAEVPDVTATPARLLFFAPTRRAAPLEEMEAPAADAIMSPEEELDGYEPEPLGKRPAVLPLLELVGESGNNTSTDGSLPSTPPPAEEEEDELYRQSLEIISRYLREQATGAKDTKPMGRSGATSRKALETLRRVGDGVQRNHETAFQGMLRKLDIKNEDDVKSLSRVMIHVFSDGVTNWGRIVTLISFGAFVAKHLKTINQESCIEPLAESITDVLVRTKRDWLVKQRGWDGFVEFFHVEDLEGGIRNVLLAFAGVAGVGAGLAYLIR

Target: T1, MARCH5 (human (endogenous in LNCaP)) (UniProt Q9NX47)
T1 sequence: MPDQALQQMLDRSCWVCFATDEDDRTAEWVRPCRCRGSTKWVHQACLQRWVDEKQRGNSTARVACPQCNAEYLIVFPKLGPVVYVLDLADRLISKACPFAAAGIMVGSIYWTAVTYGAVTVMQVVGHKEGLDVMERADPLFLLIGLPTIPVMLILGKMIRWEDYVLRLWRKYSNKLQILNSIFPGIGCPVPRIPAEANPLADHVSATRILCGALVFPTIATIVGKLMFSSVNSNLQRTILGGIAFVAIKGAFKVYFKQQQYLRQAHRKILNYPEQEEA
Test: co-IP; LNCaP cells pretreated with MG115 and MG132 (10 uM each) for 1 hr, then erlotinib (10 uM) or DMSO for 3 hr; lysates precipitated with anti-MARCH5 rabbit antibody and protein A agarose, blotted with anti-MCL1 mouse antibody

Substance: MCL1 (from UniProt Q07820 1-350)
- binding: binds
